Record: PubChem BioAssay AID1259274 (Sanger Institute, 2017)
Screen: 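Kinases RKO cells need to grow, alone or with anchor drugs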 (primary screen). Cells: human RKO colorectal cancer cells. Reagent: siRNA pool against human genes. Treatment: anchor drugs BYL719 at 1 µM, cetuximab at 5 µg/ml or trametinib at 10 nM; DMSO vehicle as the no-drug arm. Detection: 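Viability as fraction of non-targeting pool 2 control, averaged across replicates, robust z-score for single knock-down, and a combination synergy score per anchor drug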. Scale: viability z-score, siRNA alone: higher = more viable cells; low values mean essential gene; viability, siRNA alone, vehicle: higher = more viable cells; synergy score with BYL719 and synergy score with Trametinib and synergy score with Cetuximab: higher = stronger combined killing with the drug. Hit rule: 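a single knock-down scoring under -3 on the robust z-score, meaning fewer cells, counts as essential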. Calls: active = essential when knocked down alone; inactive = no change alone.
In all, the deposit lists 794 reagents; below is an unselected part. 11 of them (1.4%) count as active. 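Calls rest on knock-down without drug only; synergy scores with anchor drugs were not used for the essential call.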 Unmarked entries are inactive. No viability above 1 is reported: the scale is capped. Not stated in the record: the amount of reagent, the time to read-out.

gene symbol | viability z-score, siRNA alone | viability, siRNA alone, vehicle (fraction of control) | synergy score with BYL719 | synergy score with Trametinib | synergy score with Cetuximab
MAP2K3 (mitogen-activated protein kinase kinase 3) | -1.37 | 0.781 | -0.0172 | 0.0235 | 0.0693
HUS1 (HUS1 checkpoint clamp component) | -0.278 | 0.874 | -0.0968 | -0.17 | -0.118
CAMK1G (calcium/calmodulin dependent protein kinase IG) | 0.871 | 0.973 | -0.101 | -0.0788 | -0.0274
PI4KA (phosphatidylinositol 4-kinase alpha) | 0.338 | 0.927 | -0.18 | -0.274 | -0.0731
NPR2 (natriuretic peptide receptor 2) | 0.739 | 0.961 | -0.0473 | -0.168 | -0.0387
RPS6KA3 (ribosomal protein S6 kinase A3) | 0.174 | 0.913 | 0.0201 | -0.271 | -0.087
STK36 (serine/threonine kinase 36) | -0.538 | 0.852 | -0.121 | -0.181 | -0.0228
IPMK (inositol polyphosphate multikinase) | -0.0779 | 0.891 | 0.000969 | -0.188 | -0.109
FGFR2 (fibroblast growth factor receptor 2) | -0.928 | 0.818 | -0.109 | -0.127 | -0.0599
PTK2 (protein tyrosine kinase 2) | 0.29 | 0.923 | -0.0332 | -0.108 | -0.0771
CPNE3 (copine 3) | 1.19 | 1 | -0.0936 | 0.0335 | 0.104
TSSK6 (testis specific serine kinase 6) | 0.481 | 0.939 | -0.0338 | -0.113 | -0.0201
MAP4K4 (mitogen-activated protein kinase kinase kinase kinase 4) | -0.551 | 0.851 | -0.219 | -0.348 | -0.149
NR4A2 (nuclear receptor subfamily 4 group A member 2) | -2.14 | 0.715 | -0.0323 | 0.00174 | -0.0267
SGK1 (serum/glucocorticoid regulated kinase 1) | 0.203 | 0.915 | -0.111 | -0.18 | -0.0546
EPHA10 (EPH receptor A10) | -0.783 | 0.831 | -0.0149 | -0.037 | -0.0305
PIP5K1B (phosphatidylinositol-4-phosphate 5-kinase type 1 beta) | -2.25 | 0.705 | 0.0158 | -0.0309 | -0.148
PGK1 (phosphoglycerate kinase 1) | 0.131 | 0.909 | -0.1 | -0.226 | -0.0908
PCBP1 (poly(rC) binding protein 1) | -1.05 | 0.808 | -0.0502 | -0.126 | 0.0121
TAF1L (TATA-box binding protein associated factor 1 like) | -0.0129 | 0.897 | -0.0893 | -0.186 | -0.0387
PTGS1 (prostaglandin-endoperoxide synthase 1) | -0.757 | 0.833 | 0.0265 | 0.0352 | 0.0691
CRKL (CRK like proto-oncogene, adaptor protein) | 1.19 | 1 | -0.00816 | -0.0905 | 0.121
MAPK7 (mitogen-activated protein kinase 7) | 0.806 | 0.967 | 0.11 | -0.128 | 0.117
MAPK15 (mitogen-activated protein kinase 15) | -0.916 | 0.819 | -0.195 | -0.135 | -0.0956
EFNB3 (ephrin B3) | 0.141 | 0.91 | -0.0197 | -0.264 | -0.00951
TSSK2 (testis specific serine kinase 2) | -0.804 | 0.829 | -0.0878 | -0.00485 | -0.0721
IRAK2 (interleukin 1 receptor associated kinase 2) | -0.582 | 0.848 | -0.053 | -0.294 | 0.0192
PRKACA (protein kinase cAMP-activated catalytic subunit alpha) | 1.19 | 1 | 0.0447 | -0.169 | 0
AXIN2 (axin 2) | -0.102 | 0.889 | -0.0867 | -0.198 | -0.0569
SYK (spleen associated tyrosine kinase) | 1.19 | 1 | 0.0921 | -0.109 | 0.0991
ITK (IL2 inducible T cell kinase) | -0.695 | 0.838 | -0.239 | -0.358 | -0.0465
MAP4K3 (mitogen-activated protein kinase kinase kinase kinase 3) | -0.0703 | 0.892 | -0.00953 | -0.183 | -0.0454
TESK2 (testis associated actin remodelling kinase 2) | -0.525 | 0.853 | -0.0576 | -0.267 | 0.0501
GRK5 (G protein-coupled receptor kinase 5) | 0.639 | 0.953 | 0.00687 | -0.19 | -0.0472
NR2F2 (nuclear receptor subfamily 2 group F member 2) | -0.799 | 0.83 | -0.0592 | -0.136 | -0.0156
NEK6 (NIMA related kinase 6) | 0.324 | 0.926 | -0.0558 | -0.293 | -0.0742
FGFR1 (fibroblast growth factor receptor 1) | 0.365 | 0.929 | -0.0714 | -0.239 | -0.0707
SOX9 (SRY-box transcription factor 9) | -0.562 | 0.85 | -0.182 | -0.241 | -0.0863
DIS3 (DIS3 exosome endoribonuclease and 3'-5' exoribonuclease) | -0.724 | 0.836 | -0.0936 | -0.278 | -0.164
PRP4K (pre-mRNA processing factor kinase PRP4K) | -0.067 | 0.892 | 0.00355 | -0.0582 | 0.015
GNE | -0.811 | 0.829 | -0.133 | -0.265 | -0.123
SIK3 (SIK family kinase 3) | 0.427 | 0.935 | -0.106 | -0.165 | -0.0405
RPS6KA2 (ribosomal protein S6 kinase A2) | -1.25 | 0.791 | -0.0515 | -0.0353 | 0.0399
RPS6KL1 (ribosomal protein S6 kinase like 1) | 0.788 | 0.966 | 0.0114 | -0.0107 | -0.00226
AKT2 (AKT serine/threonine kinase 2) | 1.11 | 0.993 | -0.00943 | -0.0913 | 0.0383
RIOK2 (RIO kinase 2) | 0.12 | 0.908 | 0.00648 | -0.0909 | 0.0317
PRKDC (protein kinase, DNA-activated, catalytic subunit) | -1.38 | 0.779 | -0.0289 | 0.011 | -0.109
HIPK4 (homeodomain interacting protein kinase 4) | -0.483 | 0.857 | -0.107 | -0.162 | -0.143
LRRK1 (leucine rich repeat kinase 1) | 1.04 | 0.987 | 0.139 | -0.162 | -0.0131
TNIK (TRAF2 and NCK interacting kinase) | 1.19 | 1 | 0.00538 | -0.111 | 0.11

5 entries from above, showing only “viability z-score, siRNA alone”.
STK36 (serine/threonine kinase 36): -0.538
IPMK (inositol polyphosphate multikinase): -0.0779
FGFR2 (fibroblast growth factor receptor 2): -0.928
PTK2 (protein tyrosine kinase 2): 0.29
CPNE3 (copine 3): 1.19
